The supplement of paper PMC3334620
Over roughly 33,000 sequences, “E-score (-0.5 to 0.5)” has its median near -0.016; the highest 2% begin near 0.3. Some of the results follow.

Target: T1, Yer184c (UniProt P39961)
T1 sequence: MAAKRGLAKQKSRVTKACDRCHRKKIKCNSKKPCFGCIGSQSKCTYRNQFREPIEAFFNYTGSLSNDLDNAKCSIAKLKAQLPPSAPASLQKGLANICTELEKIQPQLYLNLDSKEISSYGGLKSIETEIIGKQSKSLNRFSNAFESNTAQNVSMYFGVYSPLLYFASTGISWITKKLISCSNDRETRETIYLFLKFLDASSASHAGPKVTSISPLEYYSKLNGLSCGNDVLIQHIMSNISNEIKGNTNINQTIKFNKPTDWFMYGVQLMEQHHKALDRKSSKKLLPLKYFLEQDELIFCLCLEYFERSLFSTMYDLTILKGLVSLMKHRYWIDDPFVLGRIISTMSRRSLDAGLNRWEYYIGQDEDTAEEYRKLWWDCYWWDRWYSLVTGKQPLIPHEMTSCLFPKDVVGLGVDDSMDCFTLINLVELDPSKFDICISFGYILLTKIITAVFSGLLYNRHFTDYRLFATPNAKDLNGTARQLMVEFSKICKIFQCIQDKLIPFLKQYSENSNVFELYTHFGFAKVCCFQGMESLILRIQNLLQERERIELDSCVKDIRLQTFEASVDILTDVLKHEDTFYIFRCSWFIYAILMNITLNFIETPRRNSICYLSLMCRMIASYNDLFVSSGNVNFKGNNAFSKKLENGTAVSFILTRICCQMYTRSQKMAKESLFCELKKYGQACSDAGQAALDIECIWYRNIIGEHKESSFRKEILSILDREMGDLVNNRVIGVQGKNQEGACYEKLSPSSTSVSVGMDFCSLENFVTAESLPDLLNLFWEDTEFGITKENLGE
Assay: PBM E-score (8-mer binding enrichment) (E-score (-0.5 to 0.5)); higher = stronger / more preferred TF binding
Settings: protein concentration: 100 nM; construct: GST-full length
Method: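 Universal 'all 10-mer' protein binding microarrays (Agilent AMADID 015681) probed with GST-tagged S. cerevisiae TFs (full-length or DBD) made by in vitro transcription/translation (PURExpress), about 100-200 nM. Bound TF was detected with fluorescent anti-GST. Each ungapped 8-mer (which stands for itself and its reverse complement) is scored by the PBM enrichment score (E-score), a modified Wilcoxon-Mann-Whitney statistic from -0.5 to +0.5, computed with the Universal PBM Analysis Suite. Scale: above 0.35 generally sequence-specific binding.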

Point of comparison: CTGTACAA, “PBM E-score” value 0.145. Against it:
- AGGTCGCA — lower, -0.0629
- GTTTCAAA — higher, 0.153
- AGGAGGGA — lower, -0.143
- GACACCAC — lower, -0.182
- AGATAAAT — lower, 0.0452
- ACGGCAGC — higher, 0.161
- CGTAGTGA — lower, -0.00872
- AATGTAGC — lower, -0.164
- ACATACTC — lower, 0.0395
- ACAGAGAT — lower, 0.0773
- CACGCACG — lower, 0.0153
- ATTGGGTG — lower, 0.0479
- ATTTTGCC — lower, 0.0111
- CATCGTGG — lower, -0.245
- TGCAGTAA — lower, -0.0942
- ACCGTGGG — lower, -0.135
- ACTAGGCA — lower, -0.16
- GTCCGGAA — higher, 0.429
- ACGGCCTG — lower, 0.0944
- GGAACGCC — lower, 0.0678
- CCACCTGA — lower, -0.069
- AACACCGC — lower, -0.13
- AAAATCAA — higher, 0.176
- TGTCTTAA — lower, 0.0193
- ATCACTAC — lower, -0.00696
- AGTTCGGA — higher, 0.264
- ATTTGCAA — higher, 0.221
- CAGGCGGA — higher, 0.267
- GTCACTCA — lower, 0.128
- TAAAGAGA — lower, -0.0427
- GCAATCTA — lower, -0.00051
- ACTGCGTG — lower, -0.268
- GCAGCTCA — lower, -0.108
- CAGCGATC — lower, 0.00289
- TGATAACA — higher, 0.171
- CGCCTCAG — lower, -0.0607
- ATTTGATC — lower, 0.0937
- AATACCCC — lower, -0.218
- CCTAGAAC — lower, 0.0255
- CCTATCTA — lower, -0.132
- ATGGAATA — lower, 0.127
- AAAACCAG — lower, -0.0215
- ATCCGTCG — higher, 0.168
- TAATCCCA — lower, -0.216
- GATTGGAC — lower, -0.14
- GAACTGAC — lower, 0.0493
- CTGGTCTC — lower, -0.24
- GCAACCAC — lower, 0.0637
- ACCCATTG — lower, -0.0496
- ACGTTGCC — lower, -0.14
- CCACTAAA — lower, -0.0267
- ACAACGCA — lower, 0.0781
- AGTTGGAG — lower, -0.106
- AATATCTC — lower, 0.106
- ATATTGCG — lower, -0.0525
- ACAGAGCA — lower, 0.0955
- ACTCATTA — lower, -0.0725
- GTCCTCGA — lower, -0.0311
- AGCAACAA — higher, 0.227
- ACGGTGAT — lower, -0.146
- CAACGCGC — higher, 0.154
- AAACTAGC — lower, -0.093
- GGATAAAC — higher, 0.224
- AAAGCACA — lower, 0.0779
- AATACATA — lower, 0.0439
- AACGGGCG — lower, -0.157
- GGTTACAA — higher, 0.23
- AACCTGCA — lower, -0.0155
- AAGAAATC — lower, -0.0468
- CCCCGTGA — lower, -0.178
- CGCAGGTC — lower, -0.21
- GAGAATAA — higher, 0.168
- GCTCATGA — lower, -0.0987
- GAGGGGTA — lower, -0.195
- AGAGCGAA — lower, -0.0274
- CATTAGAC — lower, -0.0664
- TATAAATA — higher, 0.266
- GGGTTTAC — lower, -0.0429
- ATACCTAA — lower, 0.054
- ATACGCCG — higher, 0.204
- AGCGAGTA — higher, 0.189
- CTGAGACC — lower, -0.14
- ACTGGCAC — lower, -0.14
- GATCTCAA — lower, 0.125
- AGTGCCAA — lower, -0.123
- GGATGGCC — lower, -0.0362
- TCATCGCA — lower, -0.0385
- AGAGGCAG — lower, -0.217
- AGCACGTG — lower, 0.144
- AGGGAGTG — lower, -0.291
- AATAGTGA — lower, 0.126
- ACTAGCCC — lower, -0.0746
- CCTCATAG — lower, -0.187
- AACTGTAT — higher, 0.167
- CCAGGAAG — lower, -0.164
- GCTAGTAC — lower, -0.085
- AATGCGTC — lower, -0.141
- CGGCTACC — higher, 0.23
- CTGGCTCC — lower, -0.183
- AGAGCCTC — lower, -0.312
- ACGGGAAG — lower, -0.024
- GTTCCTTA — lower, 0.112
- CAGAGTAA — lower, -0.0236
- CAGAGATA — lower, -0.0588
- ACAGCCAT — lower, -0.184
- AGTTCGAT — lower, -0.0396
- AATGGGGG — lower, -0.347
- AAGAAAGC — lower, -0.0333
- AACTCCGT — higher, 0.222
- AGGCAACT — lower, 0.0699
- TATCCTCA — lower, -0.0278
- AAGGGACC — lower, -0.0161
- AACGAAAT — higher, 0.248
- ACAACACA — lower, 0.111
- CAACCGAA — higher, 0.258
- ACGGTAAG — lower, -0.00751
- GCGGGTAC — lower, -0.0776
- AGAATGGC — lower, 0.0242
- CAGGGCAC — lower, -0.172
- GCAGTACC — lower, 0.0091
- ATCTGTAG — lower, -0.0935
- TACACGGA — higher, 0.302
- GCCACAGC — lower, -0.186
- AACTCAAA — lower, 0.0718
- AAGCGACG — lower, -0.0516
- CGTAAGCC — lower, 0.0257
- GTAGGTGA — lower, -0.135
- TCAGATGA — lower, 0.0923
- AGTAATAG — lower, -0.00505
- CGATGGCC — lower, -0.00914
- CTCGACTA — lower, -0.1
- AGGGGCCA — lower, -0.217
- CCGGTAAG — higher, 0.369
- TAACGCGA — lower, -0.0896
- GCGCTCTA — lower, -0.0288
- GATCGCGA — higher, 0.186
- TACGGAGA — higher, 0.153
- TGACGAAA — lower, 0.102
- TATCTAAA — lower, 0.0877
- AGATTGTA — lower, -0.0525
- AAAAAGCC — higher, 0.289
- GGTTTCGA — lower, 0.00891
- ATGGGGAG — lower, -0.226
- CGACATAG — lower, -0.172
- TGGCATAA — lower, 0.139
- CGTACGCA — lower, -0.103
- TCCTGCAA — lower, -0.0596
- GGGGCGAC — lower, -0.173
- TGACTGCA — lower, -0.283
- CTGGAGAC — lower, -0.098
- AAAGGACG — lower, 0.0579
- AAAAATTG — lower, 0.107
- CGCCATAC — lower, 0.0267
- AGTTTTAT — higher, 0.21
- CCGAAGTA — higher, 0.25
- TAGAAGAA — lower, 0.0399
- AATCAACT — lower, 0.0941
- CAAATAAC — lower, 0.135
- AACCATTC — lower, -0.0758
- CGTTCTTA — lower, 0.0844
- CAATGCCA — lower, -0.117
- ACATCGCC — lower, -0.0957
- AAAACGTC — lower, 0.0634
- CACATCGC — lower, -0.157
- AGGCCCGC — lower, 0.0405
- AAAGCCAC — lower, -0.00701
- TATGTACA — lower, -0.0329
- GTCAAAAC — higher, 0.19
- GATAGTAA — lower, 0.0357
- CCCACTAG — lower, -0.364
- GTGAGCTA — lower, -0.15
- TGCATCAA — lower, 0.0626
- GGCGCATA — lower, -0.0303
- ATATAAAG — lower, 0.0639
- CAAGACCG — lower, 0.0414
- ACTGCCTC — lower, -0.229
- CATGAGAC — lower, -0.0666
- CTCTGAAG — lower, -0.164
- ATCATCCA — lower, -0.131
- TGGCCTAA — lower, -0.147
- AACCGTCT — lower, -0.0225
- CTATTAAG — lower, -0.0949
- AGCCGCCA — lower, -0.203
- TCACGGAA — higher, 0.341
- AAGCATCC — lower, -0.118
- CGGGCTCA — lower, -0.053
- TATCAATA — higher, 0.178
- AACCACAC — lower, -0.0444
- ATTGGAAA — higher, 0.156
- AGTAAAAT — higher, 0.161
- GCCTAACA — lower, 0.0992
- GTACCTTA — lower, 0.0404
- CAATGCAA — lower, 0.0267
- CGGAGACC — lower, 0.0297
- CTGACAGA — lower, 0.0329
- CACTGGCG — lower, -0.136
- GGGCCTAC — lower, -0.197
- ATGTCCCG — lower, 0.0328
- GCACCACC — lower, -0.201
- CCTACAAA — lower, 0.137
- ACTGTGCT — lower, -0.0518
- ACCCGAGA — higher, 0.195
- CGGTGAGA — higher, 0.188
- AGACCCGG — higher, 0.198
- CAATACAC — lower, 0.135
- GACGACAA — higher, 0.166
- AAACGCTA — lower, -0.164
- GTGTTACA — lower, 0.0194
- AGGCGATA — lower, -0.12
- GCCGTAGC — lower, 0.045
- CGTCAGAG — lower, -0.162
- AAGTAAAA — lower, 0.0973
- AATCCAAG — lower, -0.0619
- TCCGGACA — higher, 0.431
- TACCTATA — lower, -0.0891
- GTTTAATA — higher, 0.155
- ACTGACTA — lower, -0.132
- AAGCCGAA — higher, 0.389
